In publication PMC3499388:
No constants are given. Whether binding was seen depends on the method and setting. In cells and extracts the contact can be indirect. Some entries that bind do so weakly or less than the wild type.

Molecular target: T1, murine BMI1-2Py (murine) (UniProt P25916)
T1 sequence: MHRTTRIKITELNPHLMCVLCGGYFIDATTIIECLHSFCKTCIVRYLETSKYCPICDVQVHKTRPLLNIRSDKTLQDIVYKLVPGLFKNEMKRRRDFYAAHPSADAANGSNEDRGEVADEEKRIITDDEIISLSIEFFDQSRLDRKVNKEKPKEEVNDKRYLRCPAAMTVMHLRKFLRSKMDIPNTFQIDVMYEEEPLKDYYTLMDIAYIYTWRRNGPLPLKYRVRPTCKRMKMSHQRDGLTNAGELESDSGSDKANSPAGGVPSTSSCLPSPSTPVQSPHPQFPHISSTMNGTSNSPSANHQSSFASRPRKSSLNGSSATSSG
Assay: co-IP; U2-OS cells with or without BMI1-2Py, serum-starved, then stimulated with mitogens (FCS/TPA) or selenite, also after p38 inhibitor; cells cross-linked or lysed directly in ELB buffer (50 mM HEPES pH 7.0, 250 mM NaCl, 5 mM EDTA, 0.1% NP-40); PRC1-directed IP on protein G beads, immunoblot

binding: binds
B1: CBX4 (protein, UniProt O00257 1-560)
chain: MELPAVGEHVFAVESIEKKRIRKGRVEYLVKWRGWSPKYNTWEPEENILDPRLLIAFQNRERQEQLMGYRKRGPKPKPLVVQVPTFARRSNVLTGLQDSSTDNRAKLDLGAQGKGQGHQYELNSKKHHQYQPHSKERAGKPPPPGKSGKYYYQLNSKKHHPYQPDPKMYDLQYQGGHKEAPSPTCPDLGAKSHPPDKWAQGAGAKGYLGAVKPLAGAAGAPGKGSEKGPPNGMMPAPKEAVTGNGIGGKMKIVKNKNKNGRIVIVMSKYMENGMQAVKIKSGEVAEGEARSPSHKKRAADERHPPADRTFKKAAGAEEKKVEAPPKRREEEVSGVSDPQPQDAGSRKLSPTKEAFGEQPLQLTTKPDLLAWDPARNTHPPSHHPHPHPHHHHHHHHHHHHAVGLNLSHVRKRCLSETHGEREPCKKRLTARSISTPTCLGGSPAAERPADLPPAAALPQPEVILLDSDLDEPIDLRCVKTRSEAGEPPSSLQVKPETPASAAVAVAAAAAPTTTAEKPPAEAQDEPAESLSEFKPFFGNIIITDVTANCLTVTFKEYVTV
